# These are yes or no findings as the source states them, for the method shown. Some entries that bind do so weakly or less than the wild type.
# Protein sequences, listed by entry. Tags and fused reporters are not part of them. Residues count along the entry.
# UniProt P11021, residues 19-654: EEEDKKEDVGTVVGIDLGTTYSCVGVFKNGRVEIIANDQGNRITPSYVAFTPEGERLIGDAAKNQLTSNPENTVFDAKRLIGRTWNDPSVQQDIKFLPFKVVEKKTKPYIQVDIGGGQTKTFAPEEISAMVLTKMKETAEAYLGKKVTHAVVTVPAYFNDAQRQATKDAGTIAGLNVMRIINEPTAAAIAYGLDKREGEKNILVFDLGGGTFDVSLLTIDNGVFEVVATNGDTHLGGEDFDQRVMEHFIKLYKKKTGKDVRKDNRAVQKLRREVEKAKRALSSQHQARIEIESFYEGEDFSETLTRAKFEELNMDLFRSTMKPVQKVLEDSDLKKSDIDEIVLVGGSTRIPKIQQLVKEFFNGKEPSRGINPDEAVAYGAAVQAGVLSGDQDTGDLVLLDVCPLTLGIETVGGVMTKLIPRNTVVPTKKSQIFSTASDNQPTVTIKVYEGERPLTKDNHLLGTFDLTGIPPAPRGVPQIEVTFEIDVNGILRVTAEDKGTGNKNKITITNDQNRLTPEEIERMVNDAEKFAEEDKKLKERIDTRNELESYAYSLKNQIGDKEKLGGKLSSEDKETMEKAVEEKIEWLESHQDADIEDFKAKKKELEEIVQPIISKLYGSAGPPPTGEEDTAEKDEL
# B1: GIRLRG (SEQ ID NO:1) peptide (peptide)
# peptide: GIRLRG
# notes: Unconjugated synthetic hexapeptide, used as the analyte in SPR and as the ligand in the molecular model; also called lead peptide
# Columns and labels:
# [1] = target: T1, recombinant eukaryotic GRP78 protein (Prospec, USA) (UniProt P11021 19-654, limits assumed); test: SPR (BIAcore 2000): GRP78 amine-coupled on a CM4 chip, peptide as analyte in HBS-EP at 25 C, reference-subtracted
# T1 construct: Immobilised by amine coupling on a CM4 chip; also called Glucose-regulated protein 78 kDa; Glucose Regulatory Protein-78
# [2] = target: T1, recombinant eukaryotic GRP78 protein …; test: SPR, GRP78 immobilised on a CM4 chip
binder,measurement,setting,value
B1,binding,[1],binds
same,binding,[2],binds

# — patent publication US10449261B2, “Compositions targeting radiation-induced molecules and methods of use thereof” (Washington University, priority 2014, dated 2019)
